Test results from patent EP1482987B1 (Bracco Suisse SA, dated 2014).
Results are given in words; binding and its absence hold for the method and conditions named. Some binding calls cover weakened binding; strength is not graded here.

By UniProt entry, the sequences of proteins in these tests, tags left out. Residues count along the entry.
UniProt P35968, residues 20-1356: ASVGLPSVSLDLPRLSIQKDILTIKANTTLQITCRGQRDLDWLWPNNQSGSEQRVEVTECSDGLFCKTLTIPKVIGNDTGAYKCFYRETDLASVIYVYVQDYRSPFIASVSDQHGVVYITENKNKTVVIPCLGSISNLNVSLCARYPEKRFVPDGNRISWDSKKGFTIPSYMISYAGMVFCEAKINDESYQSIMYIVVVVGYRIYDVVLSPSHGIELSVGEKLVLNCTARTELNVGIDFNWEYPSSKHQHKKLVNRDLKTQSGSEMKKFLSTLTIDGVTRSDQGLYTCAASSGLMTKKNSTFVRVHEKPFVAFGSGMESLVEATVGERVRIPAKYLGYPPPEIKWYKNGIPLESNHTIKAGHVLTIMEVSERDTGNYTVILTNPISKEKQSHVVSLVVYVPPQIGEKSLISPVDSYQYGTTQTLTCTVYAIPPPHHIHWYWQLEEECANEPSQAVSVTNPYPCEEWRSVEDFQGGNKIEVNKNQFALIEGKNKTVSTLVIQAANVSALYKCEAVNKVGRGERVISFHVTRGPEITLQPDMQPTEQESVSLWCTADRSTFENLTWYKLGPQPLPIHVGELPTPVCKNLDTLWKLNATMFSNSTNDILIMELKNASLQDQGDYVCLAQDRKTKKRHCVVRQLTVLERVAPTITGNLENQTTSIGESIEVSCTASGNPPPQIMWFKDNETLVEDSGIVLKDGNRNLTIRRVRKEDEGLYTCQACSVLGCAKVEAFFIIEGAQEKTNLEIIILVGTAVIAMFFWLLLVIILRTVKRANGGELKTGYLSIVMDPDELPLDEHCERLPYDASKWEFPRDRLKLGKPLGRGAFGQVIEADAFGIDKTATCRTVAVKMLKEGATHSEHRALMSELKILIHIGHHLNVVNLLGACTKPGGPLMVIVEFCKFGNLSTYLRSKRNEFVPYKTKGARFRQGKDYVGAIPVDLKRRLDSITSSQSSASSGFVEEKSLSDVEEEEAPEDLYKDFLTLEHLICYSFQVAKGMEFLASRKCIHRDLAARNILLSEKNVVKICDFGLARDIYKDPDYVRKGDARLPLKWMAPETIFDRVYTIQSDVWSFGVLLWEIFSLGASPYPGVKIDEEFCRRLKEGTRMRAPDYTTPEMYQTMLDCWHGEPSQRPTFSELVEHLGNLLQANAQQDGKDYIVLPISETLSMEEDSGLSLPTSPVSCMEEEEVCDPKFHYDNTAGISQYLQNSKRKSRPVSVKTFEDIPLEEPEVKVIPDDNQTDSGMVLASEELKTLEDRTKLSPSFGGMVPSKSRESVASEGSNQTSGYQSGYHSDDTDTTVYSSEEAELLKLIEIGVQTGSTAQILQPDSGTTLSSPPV

Molecular target: KDR (full-length receptor) expressed on transiently transfected 293H cells (human) (UniProt P35968)
Assay: competition with 125I-VEGF at 10, 0.3 and 0.03 µM (FIG. 14)

AQDWYYDEILSMADQLRHAFLSGG (Ac-; -NH2) [P13-D]
binding: binds
